Record: PubChem BioAssay AID1259308 (NCATS, 2017)
The whole screen tested about 59,000 reagents; this is a part drawn at random. About 1,510 of all reagents (2.6%) were called active. 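Calls use total luciferase alone and ignore viability, so some active siRNAs may act by altering cell number.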 Reagents against one gene are numbered here.

Screen: 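Knock-downs that increase output of a recombinant reporter protein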 (primary screen)
Cells: human HEK293 embryonic kidney cells stably expressing firefly luciferase (HEK-CMV-Luc2-Hygro)
Reagent: single siRNA against human genes, 0.8 pmol siRNA per well
Duration: 72 h
Measurement: 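Reporter luminescence and viable-cell signal on separate replicate plates, given as percent of non-targeting control and median/MAD z-scores, plus per-cell luciferase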
Direction: total luciferase, z-score and total luciferase, % of control: higher = more reporter protein produced; luciferase per cell, z-score: higher = more reporter output per viable cell; viable cells, % of control: higher = more viable cells
Rule for the call: 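An siRNA counts as active if its total luciferase robust z-score exceeds 3; genes with two or more such siRNAs out of three were retested with fresh siRNAs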
Meaning of the calls: active = raised luciferase; inactive = no rise

gene knocked down	reagent	total luciferase, z-score	total luciferase, % of control	luciferase per cell, z-score	viable cells, % of control	Call
CREB3L1	1	-1.32	55.6	-1.75	98.6	inactive
CREB3L1	2	2.21	126	1.46	95.7	inactive
CREB3L1	3	1.28	107	1.04	91.4	inactive
BPIFA2	1	0.223	86.3	-0.0567	97.9	inactive
BPIFA2	2	0.134	84.6	-0.077	96.4	inactive
BPIFA2	3	3.12	144	2.32	87.4	active
CCNP	1	-1.06	60.8	-0.619	80	inactive
CCNP	2	0.326	88.4	0.279	91.8	inactive
CCNP	3	0.341	88.7	-0.0352	100	inactive
RNH1	1	0.59	93.6	0.267	97.5	inactive
RNH1	2	-0.156	78.8	-0.524	101	inactive
RNH1	3	-0.95	63	-0.826	87.5	inactive
NSF	1	1.05	103	0.262	107	inactive
NSF	2	-0.18	78.3	-0.625	103	inactive
NSF	3	1.05	103	0.915	90.3	inactive
CD300C	1	0.334	88.5	-0.239	105	inactive
CD300C	2	-0.124	79.4	0.221	83.7	inactive
CD300C	3	-2.39	34.4	-2.93	83.1	inactive
PCDH19	1	1.04	103	0.794	93.1	inactive
PCDH19	2	-1.62	49.7	-1.49	82.3	inactive
PCDH19	3	-0.814	65.7	0.162	70.3	inactive
PGA5	1	-1.5	52.1	-1.46	85.4	inactive
PGA5	2	0.567	93.2	0.272	96.9	inactive
PGA5	3	0.34	88.6	0.176	94.6	inactive
SAPCD1	1	-0.86	64.8	0.418	64.8	inactive
SAPCD1	2	-0.954	62.9	-0.735	85.3	inactive
SAPCD1	3	1.75	117	0.928	102	inactive
URGCP	1	-1.22	57.7	-0.33	70.4	inactive
URGCP	2	0.318	88.2	0.0944	96.1	inactive
URGCP	3	3.66	155	4.17	57.7	active
FCN3	1	1.08	103	2.15	65.7	inactive
FCN3	2	0.555	92.9	0.0837	102	inactive
FCN3	3	0.207	86	-0.0841	98.3	inactive
PHKG2	1	-0.325	75.4	0.0476	83.2	inactive
PHKG2	2	0.702	95.9	-0.105	110	inactive
PHKG2	3	0.979	101	1.27	81.1	inactive
NR4A1	1	0.98	101	1.63	73.8	inactive
NR4A1	2	-0.072	80.5	-0.726	109	inactive
NR4A1	3	-1.43	53.4	-2.77	124	inactive

As entered above.
CCNP #2, total luciferase, z-score = 0.326
Under “total luciferase, z-score”, NR4A1 #3 has -1.43
Value for FCN3 #1 in “Call”: inactive
